Taken from: PubChem BioAssay AID504774 (Drosophila RNAi Screening Center, 2011)

Aim: 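Fly genes whose loss alters survival after alkylation damage to DNA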 (primary screen)
Cell system: Drosophila Kc167 cells
Reagent: long dsRNA against Drosophila genes, about 0.25 µg dsRNA per well
Duration: about 6 days: 3 days knock-down, then 3 days with or without MMS
Treatment: methyl methanesulphonate 0.004% (w/v) for 3 days after knock-down
Measurement: 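Viability in wells given MMS, read as ATP luminescence, normalised by quantiles plate by plate and averaged across replicates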
Reading the numbers: mean viability with MMS and viability with MMS: higher = more surviving cells after MMS
The screen tested about 23,000 reagents; below is a random part of those with a known target gene and a result. 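Values are quantile-normalised luminescence on an arbitrary scale; higher means more cells surviving MMS.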 The numbers tell different reagents against one gene apart. A plus sign joins genes that one reagent is predicted to hit. Not all columns of the deposit are shown. No sequences are given here.

For Rx (Retinal Homeobox) #1 the deposit lists mean viability with MMS 3.54e6; viability with MMS, replicate 1 = 4.04e6.
Knock-down of Rx (Retinal Homeobox) #2 gave: mean viability with MMS 3.49e6; viability with MMS, replicate 1 = 3.86e6.
Silencing of Cadps (Calcium-dependent secretion activator) #1 resulted in: mean viability with MMS 3.61e6; viability with MMS, replicate 1 = 4.17e6.
For Cadps (Calcium-dependent secretion activator) #2, the entry reads mean viability with MMS 3.39e6; viability with MMS, replicate 1 = 3.89e6.
Knock-down of CadN2 + CG42830 #1 resulted in: mean viability with MMS 3.64e6; viability with MMS, replicate 1 = 4.05e6.
Against CadN2 + CG42830 #2, the entry reads mean viability with MMS 3.59e6; viability with MMS, replicate 1 = 3.97e6.
CadN2 + CG42830 #3 showed mean viability with MMS 3.58e6; viability with MMS, replicate 1 = 3.99e6.
Against nop5, the values are mean viability with MMS 3.33e6; viability with MMS, replicate 1 = 3.66e6.
After knock-down of CG17271 #1, the record shows mean viability with MMS 3.47e6; viability with MMS, replicate 1 = 3.94e6.
After knock-down of CG17271 #2, the record shows mean viability with MMS 3.06e6; viability with MMS, replicate 1 = 3.72e6.
CG17271 #3 gave mean viability with MMS 3.44e6; viability with MMS, replicate 1 = 3.95e6.
Knock-down of CG9427 came out at: mean viability with MMS 3.53e6; viability with MMS, replicate 1 = 3.93e6.
Against Eig71Ef (Ecdysone-induced gene 71Ef) the deposit lists mean viability with MMS 3.48e6; viability with MMS, replicate 1 = 3.92e6.
Against lncRNA:bxd (bithoraxoid), the values are mean viability with MMS 3.58e6; viability with MMS, replicate 1 = 4.08e6.
Against yps (ypsilon schachtel), the entry reads mean viability with MMS 3.48e6; viability with MMS, replicate 1 = 3.85e6.
For beta-PheRS (Phenylalanyl-tRNA synthetase, beta-subunit) the deposit lists mean viability with MMS 3.39e6; viability with MMS, replicate 1 = 3.91e6.
With knock-down of Brca2 (BRCA2, DNA repair associated) #1, the screen gave mean viability with MMS 3.52e6; viability with MMS, replicate 1 = 3.99e6.
For Brca2 (BRCA2, DNA repair associated) #2, the values are mean viability with MMS 3.58e6; viability with MMS, replicate 1 = 4.09e6.

Targets above whose target name starts with R or r (2):
Rx (Retinal Homeobox) #1 | mean viability with MMS = 3.54e6; viability with MMS, replicate 1 = 4.04e6
Rx (Retinal Homeobox) #2 | mean viability with MMS = 3.49e6; viability with MMS, replicate 1 = 3.86e6

Next results follow:
For MstProx + Mst84Da the deposit lists mean viability with MMS 3.45e6; viability with MMS, replicate 1 = 3.79e6.
For CG32249 #1, the entry reads mean viability with MMS 3.53e6; viability with MMS, replicate 1 = 4.01e6.
CG32249 #2 scored mean viability with MMS 3.77e6; viability with MMS, replicate 1 = 4.33e6.
CG32249 #3 gave mean viability with MMS 3.53e6; viability with MMS, replicate 1 = 4.00e6.
With knock-down of CG7548, the screen gave mean viability with MMS 3.70e6; viability with MMS, replicate 1 = 4.25e6.
Against hgo (homogentisate 1,2-dioxygenase), the values are mean viability with MMS 3.77e6; viability with MMS, replicate 1 = 4.20e6.
Knock-down of CG1572 gave: mean viability with MMS 3.68e6; viability with MMS, replicate 1 = 4.05e6.
Silencing of CG10958 gave: mean viability with MMS 3.48e6; viability with MMS, replicate 1 = 4.01e6.
ida (imaginal discs arrested) gave mean viability with MMS 3.48e6; viability with MMS, replicate 1 = 3.93e6.
Against CG30098, the entry reads mean viability with MMS 3.39e6; viability with MMS, replicate 1 = 3.99e6.
Silencing of pug (pugilist) gave: mean viability with MMS 3.52e6; viability with MMS, replicate 1 = 4.00e6.
With knock-down of glob1 (globin 1) the results were mean viability with MMS 3.47e6; viability with MMS, replicate 1 = 3.86e6.
After knock-down of Gp210 (Glycoprotein 210 kDa) #1, the record shows mean viability with MMS 3.55e6; viability with MMS, replicate 1 = 4.02e6.
After knock-down of Gp210 (Glycoprotein 210 kDa) #2, the screen gave mean viability with MMS 3.54e6; viability with MMS, replicate 1 = 4.00e6.
Silencing of Scgalpha (Sarcoglycan alpha) resulted in: mean viability with MMS 3.77e6; viability with MMS, replicate 1 = 4.50e6.
Sry-delta (Serendipity delta) scored mean viability with MMS 3.50e6; viability with MMS, replicate 1 = 4.04e6.
Depletion of Mul1 (Mitochondrial E3 ubiquitin protein ligase 1) resulted in: mean viability with MMS 3.64e6; viability with MMS, replicate 1 = 4.16e6.
With knock-down of CG13532, the record shows mean viability with MMS 3.63e6; viability with MMS, replicate 1 = 4.26e6.
Against CG31345 #1 the deposit lists mean viability with MMS 3.41e6; viability with MMS, replicate 1 = 3.88e6.
Knock-down of CG31345 #2 gave: mean viability with MMS 3.36e6; viability with MMS, replicate 1 = 3.81e6.
After knock-down of CG8642 the results were mean viability with MMS 3.50e6; viability with MMS, replicate 1 = 3.99e6.
CG12129 scored mean viability with MMS 3.71e6; viability with MMS, replicate 1 = 4.09e6.
CG34445 scored mean viability with MMS 3.68e6; viability with MMS, replicate 1 = 4.06e6.
Knock-down of ko (knockout) gave: mean viability with MMS 3.58e6; viability with MMS, replicate 1 = 4.07e6.
With knock-down of EbpIII (Ejaculatory bulb protein III), the record shows mean viability with MMS 3.65e6; viability with MMS, replicate 1 = 4.13e6.
CG34236 gave mean viability with MMS 3.46e6; viability with MMS, replicate 1 = 3.96e6.
Ir7a (Ionotropic receptor 7a) scored mean viability with MMS 3.43e6; viability with MMS, replicate 1 = 3.87e6.
